At least one structure is not confirmed: it was looked up by name or label, or the drawing left a doubt.
How the values were obtained:
[1] = system: TOV112D cells; experiment: Western blot of phosphorylated ERK and SRC in TOV112D cells; details: 1 μM over 24 hours; western blot (FIG. 8a)
[2] = system: OVCAR3 cells; experiment: Gene signature score (Ovarian Cancer DSA microarray) in treated OVCAR3 cells; assay type: cell-based, human

In the case of `CC(=O)Nc1cccc(-n2c(=O)n(C3CC3)c(=O)c3c(Nc4ccc(I)cc4F)n(C)c(=O)c(C)c32)c1` [Trametinib], the pERK protein expression [1] is reported as “decreasing pERK protein expression”, the pSRC protein expression [1] is reported as “enhancing pSRC protein levels” and the “45-gene Angio_Immune signature score” value ([2]; p=0.0011 (FIG. 4d)) is reported as “significantly decreases”. The “15-gene Angio_Immune signature score” value ([2]; p=0.0023 (FIG. 12c)) was “significantly decreases”.
